# Measured values published in PubChem BioAssay AID328 (DTP/NCI, 2004).
# The list does not hold the whole screen: it is rich in T/C values a quarter to a half above the control, in often repeated tests (any T/C) and in doses without a T/C. Other doses and runs of a compound stand elsewhere. T/C gives the treated animals as a percentage of the vehicle group. Some doses have a count of surviving animals in place of a T/C: the source holds a T/C of zero for them, seemingly a mark for toxic or unscored doses. Some survivor counts are full or nearly so, which does not show that the dose was tolerated: survival well below the control is almost never listed, so the zero probably covers shortened survival too. Counts of survivors are from the toxicity check (mostly the fifth day) where no day follows; animals may have died later. Schedule codes are those of the source, taken here to give the interval after Q, in days (D) or hours (H), and the number of doses after X. Some doses were run more than once; the results are listed from low to high. For survival time, the PubChem record calls one and a half times the control and up active, and a quarter to a half above the control has no call in these data; cut-offs in other NCI protocols can differ. Some T/C values carry the count of animals alive at the toxicity check (mostly the fifth day); without a count, all were alive then.
# System: BDF1 mice, P388 leukemia ip, median survival T/C
# Experiment: NCI In Vivo Anticancer Drug Screen. Data for tumor model P388 Leukemia (intraperitoneal) in B6D2F1 (BDF1) mice
# Details: T/C endpoint: median survival time, higher T/C = longer survival
# Method in brief: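 Read-out is survival of treated animals expressed relative to the vehicle group, as a T/C ratio.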
# [1] = dose: 400.0 mg/kg/injection, schedule: Q01DX009 (ip), vehicle: Klucel (hydroxypropylcellulose) (HPC)
# [2] = dose: 50.0 mg/kg/injection, schedule: Q01DX009 (ip), vehicle: saline with Tween-80
# [3] = dose: 200.0 mg/kg/injection, schedule: Q01DX009 (ip), vehicle: saline with Tween-80
# [4] = dose: 100.0 mg/kg/injection, schedule: Q01DX009 (ip), vehicle: saline
# [5] = dose: 1.5 mg/kg/injection, schedule: Q01DX009 (ip), vehicle: saline
# [6] = dose: 3.0 mg/kg/injection, schedule: Q01DX009 (ip), vehicle: saline
structure (smiles),measurement,setting,value
Nc1ncc([N+](=O)[O-])cn1,survivor count,[1],2 of 6
CC(=O)NC1C(S[As](C)C)OC(COC(C)=O)C(OC(C)=O)C1OC(C)=O (centres undefined),T/C,[2],136 % of control
same,T/C,[3],127 % of control [5 of 6 alive]
Cc1ccc(NC(=S)NCCc2ccccn2)cc1C,T/C,"dose: 400.0 mg/kg/injection, schedule: Q01DX009 (ip), vehicle: saline with Tween-80",126 % of control
CCN1CC[N+](C)(CC)Cc2ccccc21 (centres undefined),survivor count,"dose: 50.0 mg/kg/injection, schedule: Q04DX003 (ip), vehicle: saline with Tween-80",6 of 6
Cc1ccc(S(=O)c2ccc([N+](=O)[O-])c3nonc23)cc1 (centres undefined),survivor count,"dose: 25.0 mg/kg/injection, schedule: Q01DX009 (ip), vehicle: saline with Tween-80",5 of 7
same,survivor count,[2],2 of 7
same,survivor count,"dose: 100.0 mg/kg/injection, schedule: Q01DX009 (ip), vehicle: saline with Tween-80",0 of 7
CCCCNC(C)(C)C(SSSC(c1ccc(C(F)(F)F)cc1)C(C)(C)NCCCC)c1ccc(C(F)(F)F)cc1 (centres undefined),T/C,"dose: 200.0 mg/kg/injection, schedule: Q04DX003 (ip), vehicle: saline",125 % of control
CC(=O)OCC(=O)[C@@]1(O)CC[C@H]2[C@@H]3CCC4=CC(=O)CC[C@]4(C)[C@H]3[C@@H](O)C[C@@]21C,survivor count,"dose: 200.0 mg/kg/injection, schedule: Q01DX010 (sc), vehicle: saline",6 of 6
same,survivor count,"dose: 400.0 mg/kg/injection, schedule: Q01DX010 (sc), vehicle: saline",6 of 6
same,survivor count,"dose: 600.0 mg/kg/injection, schedule: Q01DX010 (sc), vehicle: saline",6 of 6
same,survivor count,"dose: 800.0 mg/kg/injection, schedule: Q01DX010 (sc), vehicle: saline",6 of 6
CC1C[N-]CC(C)C1.CC1C[N-]CC(C)C1.[Cl][Pt+2]([Cl])([Cl])[Cl] (centres undefined),T/C,"dose: 3.12 mg/kg/injection, schedule: Q01DX009 (ip), vehicle: saline",143 % of control
same,T/C,"dose: 6.25 mg/kg/injection, schedule: Q01DX009 (ip), vehicle: saline",136 % of control
same,T/C,"dose: 12.5 mg/kg/injection, schedule: Q01DX009 (ip), vehicle: saline",139 % of control
same,T/C,"dose: 25.0 mg/kg/injection, schedule: Q01DX009 (ip), vehicle: saline, evaluated on day 30",148 % of control
same,T/C,"dose: 25.0 mg/kg/injection, schedule: Q01DX009 (ip), vehicle: saline, evaluated on day 32",136 % of control
same,T/C,"dose: 50.0 mg/kg/injection, schedule: Q01DX009 (ip), vehicle: saline",139 % of control [5 of 6 alive]
same,survivor count,[4],1 of 6
COC(=O)[C@H]1[C@H]2C[C@@H]3c4[nH]c5cc(OC)ccc5c4CCN3C[C@H]2C[C@@H](OC(=O)c2cc(OC)c(OC)c(OC)c2)[C@@H]1OC,survivor count,"dose: 0.75 mg/kg/injection, schedule: Q01DX009 (ip), vehicle: saline with Tween-80",6 of 6
same,survivor count,"dose: 1.5 mg/kg/injection, schedule: Q01DX009 (ip), vehicle: saline with Tween-80",6 of 6
same,survivor count,"dose: 3.0 mg/kg/injection, schedule: Q01DX009 (ip), vehicle: saline with Tween-80",6 of 6
same,survivor count,"dose: 6.0 mg/kg/injection, schedule: Q01DX009 (ip), vehicle: saline with Tween-80",6 of 6
same,survivor count,"dose: 12.0 mg/kg/injection, schedule: Q01DX009 (ip), vehicle: saline with Tween-80",6 of 6
COC(=O)C12OCC34C(CC5=C(C)C(=O)C(O)=CC5(C)C3C(O)C1O)OC(=O)C(OC(=O)/C=C(\C)C(C)C)C24 (centres undefined),T/C,"dose: 125.0 micrograms/kg/injection, schedule: Q01DX009 (ip), vehicle: saline + alcohol",135 % of control
Cc1ccc(-c2nc3ccccc3c(=O)n2/N=C/c2cccc3ccccc23)cc1,survivor count,[3],6 of 6
O/N=c1/ccn(O)c2ccccc12,T/C,"dose: 0.09 mg/kg/injection, schedule: Q01DX009 (ip), vehicle: saline",131 % of control
same,survivor count,"dose: 2.32 mg/kg/injection, schedule: Q04DX003 (ip), vehicle: saline",6 of 6
same,survivor count,"dose: 4.6 mg/kg/injection, schedule: Q01DX009 (ip), vehicle: saline",6 of 6
same,survivor count,"dose: 7.0 mg/kg/injection, schedule: Q01DX009 (ip), vehicle: saline",3 of 6
same,survivor count,"dose: 9.3 mg/kg/injection, schedule: Q04DX003 (ip), vehicle: saline",6 of 6
same,survivor count,"dose: 10.5 mg/kg/injection, schedule: Q01DX009 (ip), vehicle: saline",3 of 6
COc1cc(OC)c(/C=C/c2cc[n+](C)c3ccccc23)c(OC)c1,T/C,"dose: 0.75 mg/kg/injection, schedule: Q01DX009 (ip), vehicle: saline","116, 118, 126, 139 % of control"
same,T/C,[5],"127, 139 [5 of 6 alive], 144 % of control"
same,survivor count,[5],3 of 6
same,T/C,[6],130 % of control
same,survivor count,[6],2 of 6 and 3 of 6
same,survivor count,"dose: 6.0 mg/kg/injection, schedule: Q01DX009 (ip), vehicle: saline",0 of 6
O=c1[nH]nnc2ccccc12,survivor count,"dose: 200.0 mg/kg/injection, schedule: Q04DX003 (ip), vehicle: Klucel (hydroxypropylcellulose) (HPC)",1 of 6
same,survivor count,"dose: 225.0 mg/kg/injection, schedule: Q01DX009 (ip), vehicle: Klucel (hydroxypropylcellulose) (HPC)",6 of 6
same,survivor count,"dose: 400.0 mg/kg/injection, schedule: Q04DX003 (ip), vehicle: Klucel (hydroxypropylcellulose) (HPC)",0 of 6
OC(CCl)CN1CC[N+]2(CC1)CC[N+]1(CCN(CC(O)CCl)CC1)CC2 (centres undefined),T/C,"dose: 88.0 mg/kg/injection, schedule: Q01DX009 (ip), vehicle: water",144 % of control
same,T/C,"dose: 90.0 mg/kg/injection, schedule: Q01DX009 (ip), vehicle: water",126 % of control
same,survivor count,[4],6 of 6
same,T/C,"dose: 100.0 mg/kg/injection, schedule: Q01DX009 (ip), vehicle: water",136 % of control
same,T/C,"dose: 132.0 mg/kg/injection, schedule: Q01DX009 (ip), vehicle: water",148 % of control
same,survivor count,"dose: 200.0 mg/kg/injection, schedule: Q01DX009 (ip), vehicle: saline",6 of 6
same,survivor count,"dose: 300.0 mg/kg/injection, schedule: Q01DX009 (ip), vehicle: water",6 of 6
same,survivor count,"dose: 400.0 mg/kg/injection, schedule: Q01DX009 (ip), vehicle: saline",6 of 6
same,survivor count,"dose: 400.0 mg/kg/injection, schedule: Q01DX009 (ip), vehicle: water",6 of 6
COC(=O)c1cc(C)c(Br)c(OC)c1,survivor count,"dose: 100.0 mg/kg/injection, schedule: Q01DX009 (ip), vehicle: Klucel (hydroxypropylcellulose) (HPC)",6 of 6
same,survivor count,"dose: 200.0 mg/kg/injection, schedule: Q01DX009 (ip), vehicle: Klucel (hydroxypropylcellulose) (HPC)",6 of 6
same,survivor count,[1],3 of 6
C=CCOP(OCC=C)OCC=C,survivor count,"dose: 50.0 mg/kg/injection, schedule: Q04DX003 (ip), vehicle: saline",6 of 6
CCCCCCCCCCCC[N+]1(CCCCCCCCCCCC)CCCC(C)C1 (centres undefined),T/C,"dose: 0.75 mg/kg/injection, schedule: Q01DX009 (ip), vehicle: Klucel (hydroxypropylcellulose) (HPC)",131 % of control
same,T/C,"dose: 1.5 mg/kg/injection, schedule: Q01DX009 (ip), vehicle: Klucel (hydroxypropylcellulose) (HPC)",134 % of control
same,survivor count,"dose: 3.0 mg/kg/injection, schedule: Q01DX009 (ip), vehicle: Klucel (hydroxypropylcellulose) (HPC)",5 of 6
same,survivor count,"dose: 6.0 mg/kg/injection, schedule: Q01DX009 (ip), vehicle: Klucel (hydroxypropylcellulose) (HPC)",3 of 6
COc1ccc(C[n+]2cc([O-])on2)cc1,survivor count,"dose: 400.0 mg/kg/injection, schedule: Q04DX003 (ip), vehicle: saline with Tween-80",2 of 6
COc1cccc2c1C(=O)c1c(O)c3c(c(O)c1C2=O)C[C@@](O)(C(C)=O)C[C@@H]3OC1CC(N(Cc2ccccc2)Cc2ccccc2)C(O)C(C)O1 (some centres undefined),T/C,"dose: 18.8 mg/kg/injection, schedule: Q04DX003 (ip), vehicle: water",127 % of control
same,T/C,"dose: 75.0 mg/kg/injection, schedule: Q04DX003 (ip), vehicle: water",134 % of control
CN(C)CCCNC1=C(Cl)C(=O)c2ccccc2C1=O,survivor count,"dose: 50.0 mg/kg/injection, schedule: Q01DX009 (ip), vehicle: Klucel (hydroxypropylcellulose) (HPC)",3 of 6
COc1ccccc1-n1c(=O)c(N=Nc2ccccc2)c(O)n(-c2ccccc2C)c1=S,survivor count,"dose: 400.0 mg/kg/injection, schedule: Q01DX001 (ip), vehicle: saline with Tween-80",2 of 6
